Where two headings read alike, the source gives them in different places. For at least one entry, the source does not settle the construct or the ends of the probe. For some assays here: A negative result means that nothing was seen under these conditions. For some assays here: A weaker result is weaker than the reference pair of the same experiment. For some assays here: At least one verdict was read from the data and is not stated in words by the source. For some assays here: Tags and fusion partners may be left off the protein sequences shown.
Experiments:
[1] = target: T1, DmBicc1 N-term (Drosophila melanogaster) (UniProt Q24009); assay: fluorescence polarization; settings: negative control
T1 sequence (looked up, limits assumed): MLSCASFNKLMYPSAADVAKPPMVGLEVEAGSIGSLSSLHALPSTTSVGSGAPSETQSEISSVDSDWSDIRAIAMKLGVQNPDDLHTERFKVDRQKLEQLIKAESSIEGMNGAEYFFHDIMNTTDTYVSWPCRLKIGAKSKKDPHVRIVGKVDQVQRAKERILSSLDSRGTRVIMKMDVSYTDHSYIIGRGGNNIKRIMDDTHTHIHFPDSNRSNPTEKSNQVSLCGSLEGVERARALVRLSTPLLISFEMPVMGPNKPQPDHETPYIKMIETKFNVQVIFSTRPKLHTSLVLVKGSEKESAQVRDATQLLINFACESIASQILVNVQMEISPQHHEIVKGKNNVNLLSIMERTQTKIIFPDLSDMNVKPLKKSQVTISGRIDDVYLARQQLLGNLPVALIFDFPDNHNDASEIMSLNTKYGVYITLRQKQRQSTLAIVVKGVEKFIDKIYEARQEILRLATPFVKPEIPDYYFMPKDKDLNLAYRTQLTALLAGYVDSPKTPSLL

[2] = test system: DrBicc1 N-term (zebrafish (Danio rerio)); assay: fluorescence polarization
HsBicc1 N-term (human) = target: T2, HsBicc1 N-term (human) (UniProt Q9H694); assay: fluorescence polarization; settings: negative control
T2 sequence (looked up, limits assumed): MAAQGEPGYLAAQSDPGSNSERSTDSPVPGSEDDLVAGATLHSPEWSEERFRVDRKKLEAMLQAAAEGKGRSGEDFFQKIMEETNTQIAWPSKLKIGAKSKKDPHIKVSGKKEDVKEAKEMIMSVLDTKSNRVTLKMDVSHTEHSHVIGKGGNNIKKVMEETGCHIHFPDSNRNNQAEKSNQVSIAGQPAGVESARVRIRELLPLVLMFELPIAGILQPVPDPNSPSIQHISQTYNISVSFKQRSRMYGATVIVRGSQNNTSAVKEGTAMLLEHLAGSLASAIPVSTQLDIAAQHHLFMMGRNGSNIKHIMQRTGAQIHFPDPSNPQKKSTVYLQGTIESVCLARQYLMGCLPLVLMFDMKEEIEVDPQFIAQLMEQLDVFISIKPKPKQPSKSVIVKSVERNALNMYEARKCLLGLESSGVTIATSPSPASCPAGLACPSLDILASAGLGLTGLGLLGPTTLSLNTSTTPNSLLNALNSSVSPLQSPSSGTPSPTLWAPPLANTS

[3] = target: T3, XlBicc1 N-term (KH1-KH3) (Xenopus laevis) (UniProt A0A1L8FE49); assay: EMSA; settings: residues 1-506
T3 sequence (looked up): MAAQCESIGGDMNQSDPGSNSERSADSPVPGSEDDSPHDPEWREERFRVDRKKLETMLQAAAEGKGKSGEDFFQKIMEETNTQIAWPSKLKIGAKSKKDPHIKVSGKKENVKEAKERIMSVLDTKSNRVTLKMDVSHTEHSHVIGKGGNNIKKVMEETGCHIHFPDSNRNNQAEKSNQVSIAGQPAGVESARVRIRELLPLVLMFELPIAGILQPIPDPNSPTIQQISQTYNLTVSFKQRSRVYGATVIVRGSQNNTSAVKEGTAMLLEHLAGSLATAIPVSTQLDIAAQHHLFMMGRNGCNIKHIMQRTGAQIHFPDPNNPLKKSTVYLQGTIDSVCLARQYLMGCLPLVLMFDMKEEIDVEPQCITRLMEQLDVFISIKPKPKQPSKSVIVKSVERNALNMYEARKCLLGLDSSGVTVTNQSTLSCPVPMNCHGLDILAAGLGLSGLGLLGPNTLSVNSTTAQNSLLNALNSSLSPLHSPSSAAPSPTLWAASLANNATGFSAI

[4] = test system: XlBicc1-ΔKH1 (KH2-KH3) (Xenopus laevis); assay: fluorescence polarization

“CGACUCUAGAAGGACUACGUGGCAUUCCAAUU [Cyclin B1 negative control RNA]”: binds more weakly [1]; binds more weakly ([2]; negative control); binds more weakly (HsBicc1 N-term (human)).
“CGACUCUAGAAGGUUGUACAUUAACAGCUCC [Cripto-1 leader variant]”: binds more weakly [3]; no binding [2]; no binding [4].
“CUUAUUAGACACGUUGUACAUUAACAGCUCC [XlCripto-1 wild-type RNA site]”: binds ([2]; high affinity, also EMSA).
“CUUAUUAGACACGUUGUCGCGAAACAGCUCC [Cripto-1 loop variant]”: binds more weakly [3].

From paper doi:10.1101/2022.07.22.501140
